Test results published in article PMC9614494.
Results are given in words; binding and its absence hold for the method and conditions named. Binding calls can cover weak binding; strength is not graded here. For some assays here: Where a sequence is shown, tags or fusion partners need not be part of it. For some assays here: In cells and extracts the contact can be indirect. Blank lines part the entries; values can stand above or below the binder they belong to.

Tests used:
[1] = molecular target: recombinant GluTR of the cross-linking experiment (Arabidopsis thaliana); experiment: cross-linking; all three recombinant proteins (GluTR, GBP, GSAAT) mixed together, 1 mM DSSO in PBS, 1 h, room temperature, trypsin, LC-MS/MS, MaxQuant; both purified
[2] = molecular target: recombinant GluTR of the cross-linking experiment (Arabidopsis thaliana); experiment: cross-linking; recombinant proteins mixed pairwise, 1 mM DSSO in PBS, 1 h, room temperature, trypsin, LC-MS/MS, MaxQuant; both purified
[3] = molecular target: recombinant GST-GluTR (Arabidopsis thaliana); experiment: pull-down; in vitro GST pull-down: recombinant GST-GluTR with purified 6xHis-GBP and 6xHis-GSAAT together, binding buffer, overnight at 4°C, immunoblot; both purified
[4] = molecular target: recombinant GST-GluTR (Arabidopsis thaliana); experiment: pull-down; 50 µg recombinant GST-GluTR as bait with 1% n-DM solubilised plastid lysates (100 µg chlorophyll) of the wild type and of a 35S:GSA1 line, overnight at 4°C, glutathione-Sepharose 4B, eluted with 10 mM reduced glutathione, immunoblot; only the target purified
[5] = molecular target: recombinant 6xHis-GSAAT (Arabidopsis thaliana); experiment: pull-down; 50 µg recombinant His-GSAAT as bait with DM-solubilised wild-type plastid lysate (100 µg chlorophyll) in binding buffer (25 mM Tris-HCl pH 7.8, 150 mM NaCl, 5 mM MgCl2, 10% glycerol), Ni-NTA agarose, 4°C, eluted with imidazole, immunoblot; only the target purified

binding [1]: binds | binding [2]: binds
B1: recombinant GBP of the cross-linking experiment (protein, UniProt Q9LU39 43-317)
chain: SVSTTLDTPATASTHKPFPAEVSRSIMELSSVGTLSTLTHDGWPLGVGVRFAVDKDGTPVLCLNRSVSPDKRSALHVQLEQCGLRTPQCTIQGSIGRPGDDTVLKRLSATWREKFGEEVKEDSLYVVAVDRVLQMEDFMEDGIWVASSDYKNASPDPLRDIAEDIVNQINANNMEDIFRFCNVYVDLDFVVSETKMIWMDRLGFDLRVWSPRGVYDVRIPFPMEVTDEKGAKSSFNGMSQLAWEVEKSYCPADFNKVKLLKQVVGSSHSHKGGGQ

binding [3]: binds
B2: recombinant 6xHis-GBP (protein, UniProt Q9LU39 43-317)
chain: SVSTTLDTPATASTHKPFPAEVSRSIMELSSVGTLSTLTHDGWPLGVGVRFAVDKDGTPVLCLNRSVSPDKRSALHVQLEQCGLRTPQCTIQGSIGRPGDDTVLKRLSATWREKFGEEVKEDSLYVVAVDRVLQMEDFMEDGIWVASSDYKNASPDPLRDIAEDIVNQINANNMEDIFRFCNVYVDLDFVVSETKMIWMDRLGFDLRVWSPRGVYDVRIPFPMEVTDEKGAKSSFNGMSQLAWEVEKSYCPADFNKVKLLKQVVGSSHSHKGGGQ

binding [4]: binds | binding [5]: binds
B3: GBP of Arabidopsis plastids (protein, UniProt Q9LU39 43-317)
chain: SVSTTLDTPATASTHKPFPAEVSRSIMELSSVGTLSTLTHDGWPLGVGVRFAVDKDGTPVLCLNRSVSPDKRSALHVQLEQCGLRTPQCTIQGSIGRPGDDTVLKRLSATWREKFGEEVKEDSLYVVAVDRVLQMEDFMEDGIWVASSDYKNASPDPLRDIAEDIVNQINANNMEDIFRFCNVYVDLDFVVSETKMIWMDRLGFDLRVWSPRGVYDVRIPFPMEVTDEKGAKSSFNGMSQLAWEVEKSYCPADFNKVKLLKQVVGSSHSHKGGGQ
